Reference: PMC5290327, “SC83288 is a clinical development candidate for the treatment of severe malaria” (Nature Communications, 2017)

Biological target: GABA (non-selective)
Assay: Radioligand binding
Conditions: control compound
Description: The study was carried out by Cerep (Celle l'Evescault, France). An in vitro pharmacological profiling panel was designed to detect potential high-risk clinical adverse drug reactions. The panel comprised of 54 targets.
The specific ligand binding to the receptors was defined as the difference between the total binding and the non-specific binding determined in the presence of an excess of unlabelled ligand. Results were expressed as a per cent of control specific binding and as a per cent inhibition of control specific obtained in the presence of the test compounds. Results showing an inhibition (or stimulation) >50% were considered to represent significant effects of the test compounds. […] The IC50 values were determined by non-linear regression analysis of the competition curves generated with mean replicate values using Hill equation curve fitting. The inhibition constants (Ki) were calculated using the Cheng Prusoff equation.

`NCCCC(=O)O` [GABA, reference compound] showed an IC50 (read-out: Control specific binding IC50) of 16 nM and a Ki (read-out: Control specific binding Ki) of 9.5 nM.
